In PubChem BioAssay AID493014 (National Center for Advancing Translational Sciences (NCATS), 2011) one finds AC50 data, which are given here for 61 compounds.

The AC50 is the concentration at which the activity in the assay is half-maximal.

The list shows a part of the results. These are further read-outs of the screen, such as a control signal, another cell line or another target. No call is given for them. Compounds called inactive in the main read-out are mostly missing here. Potencies come from curve fits of mixed quality, noted in brackets.

A short description of this assay: qHTS Assay to Find Inhibitors of Chronic Active B-Cell Receptor Signaling. Particulars: ABC-DLBCL IkBa-CBG/CBR reporter, luminescence ratio (green luciferase fused to IkBa over red control in TMD8 lymphoma cells), 4 h. Put shortly: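 Doxycycline induced both beetle luciferases in TMD8 lymphoma cells; IKK-driven degradation limits the IkappaBalpha-fused green signal, while red luminescence normalises for cell number and nonspecific effects. Compounds tested up to 46 uM, 4 hrs.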
On the technique in general: In qHTS, concentration-response curves come from the screen itself.

Setting [1] is: measured here: CBR red luminescence, cell number.
The mark [2] stands for this setting: measured here: IkBa-CBG green luminescence.

Regarding `CC1(C)NC(=O)N(CC(O)CN(c2ccccc2)S(=O)(=O)c2ccccc2[N+](=O)[O-])C1=O` (configuration not stated), the AC50 under setting [1] was 6.31 µM [falling, single point].

As for `O=C(CCl)Nc1cccc(Oc2ccccc2)c1`, the AC50 under setting [1] is 11.2 µM [falling, partial curve, poor fit]. Turning to `O=C(c1ccco1)N1CCN(C(=O)C2CCN(S(=O)(=O)c3cccs3)CC2)CC1`, the AC50 under setting [1] is 0.0891 µM [falling, full curve, poor fit].

`COc1ccc(CN(Cc2ccco2)S(=O)(=O)c2ccc(S(=O)(=O)N3CCCC3)cc2)cc1`: the AC50 under setting [1] was 9.2 µM [rising, single point]. Consider `COc1cc2c(cc1OC)-c1cc(Nc3ccccc3)nc(=O)n1CC2`, for which the half-maximal activity concentration (AC50) under setting [1] is 15.8 µM [rising, partial curve, poor fit] and the AC50 under setting [2] is 7.94 µM [falling, partial curve]. Turning to `O=C(N/N=C/c1cc(Br)cs1)C(O)c1ccccc1` (configuration not stated), the AC50 under setting [1] is 35.5 µM [falling, single point].

As for `O=C(O)C1CCCCC1C(=O)Nc1ccccc1F` (configuration not stated), the concentration at half-maximal activity (AC50) under setting [1] is 10.3 µM [rising, partial curve, poor fit]. The same measure, in the same setting: as for `Cc1ccc(S(=O)(=O)/N=C(/NNC(=O)c2cccc(Cl)c2)c2ccccc2)cc1`, the figure is 7.08 µM [falling, partial curve, poor fit]. On the same count and under the same terms, as for `COc1ccc(C(=O)NCc2ccc(Cl)cc2)cc1S(=O)(=O)N1CCCC1`, the figure is 29.1 µM [falling, single point]; as for `CCN(CC)CCCNC(=O)c1cc(Nc2ccc(OC)cc2OC)nc2ccccc12`, 20 µM [falling, partial curve, poor fit]. Take `CC(=O)c1ccc(NC(=S)NCc2ccco2)cc1`: under setting [1], the AC50 was 2.82 µM [rising, partial curve, poor fit]. `C=C1/C=C(\C)[C@](C)(O)C[C@H](O)CC(=O)[C@H](O)[C@@H](O)[C@H](C)C[C@H](C)OC(=O)/C(C)=C/CC/C=C/[C@@H]2O[C@H]2C[C@H](C)C1`: under setting [1], the AC50 was 23.1 µM [falling, partial curve, poor fit].

With `CCOc1ccc(NS(=O)(=O)c2cnc(Cl)c(Cl)c2)cc1`, the AC50 is, setting by setting: under setting [1], 29.1 µM [rising, single point]; under setting [2], 29.1 µM [falling, single point]. Turning to `O=C(Cn1cnc2ccccc2c1=O)NCc1ccc2c(c1)OCO2`, the AC50 under setting [1] was 29.1 µM [falling, single point]. For the compound `CNS(=O)(=O)c1cccc(C(=O)OCC(=O)NC(C)CCc2ccccc2)c1` (configuration not stated), the AC50 under setting [1] was 3.55 µM [rising, partial curve, poor fit]. With `CCN(CC)S(=O)(=O)c1cc(NC(=S)NC(=O)C2CCCC2)ccc1C`, the half-maximal activity concentration (AC50) under setting [1] was 29.1 µM [falling, single point]. Still for that read-out and setting: with `COc1cc(OC)cc(-c2cc3nc(C)c(CCC(=O)O)c(=O)n3[nH]2)c1` the figure was 29.1 µM [falling, single point]. Consider `C=CCn1c(-c2cccc3ccccc23)n[nH]c1=S`, for which, under setting [2], the AC50 is 29.1 µM [falling, single point]. `CCCNC(=O)c1cc(-c2ccc3c(c2)OCO3)on1`: the AC50 under setting [1] is 7.94 µM [falling, partial curve].

`COc1ccc(OC)c(-n2c(-c3cc(-c4ccco4)[nH]n3)n[nH]c2=S)c1`: under setting [1], the AC50 was 20 µM [rising, partial curve]. As to `CCC(=O)NNC(=O)Cc1c(C)n(C(=O)c2ccc(Cl)cc2)c2ccc(OC)cc12`, the half-maximal activity concentration (AC50) under setting [1] is 8.91 µM [falling, partial curve]. Take `O=S(=O)(Nc1ccc(N2CCCCC2)cc1)c1cccs1`: under setting [1], the half-maximal activity concentration (AC50) is 3.16 µM [falling, single point]. On to `O=C(COc1ccccc1)Nc1nc2ccccc2[nH]1`, for which the AC50 under setting [1] is 5.17 µM [falling, full curve]. Take `COc1ccc(-c2nc(-c3cccs3)c(-c3cccs3)[nH]2)cc1O`: the AC50 under setting [1] was 20.6 µM [falling, partial curve, poor fit].

In the case of `N#Cc1cccc(NC(=O)COC(=O)c2ccccc2Sc2ccccc2C#N)c1`, the AC50 under setting [1] was 2.06 µM [rising, partial curve, poor fit]. Take `COc1cc(C(=O)Nc2cccc(-c3nc4ccccc4o3)c2C)cc(OC)c1OC`: under setting [1], the AC50 was 3.98 µM [rising, single point]. Consider `O=c1c2c(nc3cc(-c4ccc(F)cc4)[nH]n13)CCC2`, for which the half-maximal activity concentration (AC50) under setting [1] is 4.61 µM [falling, full curve]. For the compound `Nc1nc(CSc2n[nH]c(-c3ccccc3)n2)nc(Nc2ccccc2)n1`, the AC50 under setting [1] is 6.51 µM [rising, single point]. As to `O=[N+]([O-])c1cc(/C=N/N/C(=N/c2ccccn2)c2ccccn2)ccc1O`, the AC50 under setting [1] is 17.8 µM [falling, single point].

With `COc1ccccc1OCc1nc2ccccc2s1`, under setting [1], the AC50 is 7.31 µM [falling, partial curve].

As to `CCCCCC1CC(CC(=O)O)C(=O)O1` (configuration not stated), the AC50 under setting [1] is 29.1 µM [rising, single point]. On to `O=C(Nc1ccccc1[N+](=O)[O-])C1COc2ccccc2O1` (configuration not stated), for which the AC50 under setting [1] is 5.01 µM [rising, partial curve, poor fit]. Same read-out and setting: with `Cc1cc(=O)oc2ccc(OC(=O)c3cccc(S(=O)(=O)N4CCOCC4)c3)cc12` the figure was 18.4 µM [falling, single point].

Regarding `CN(Cc1ccc(-n2cccn2)cc1)C(=O)c1cnn2c1NC(c1ccco1)CC2C(F)(F)F` (configuration not stated), the half-maximal activity concentration (AC50) under setting [1] is 23.1 µM [falling, single point]. `CCc1ccc2oc(-c3ccc(NC(C)=O)cc3)nc2c1`: under setting [1], the concentration at half-maximal activity (AC50) is 14.1 µM [falling, single point]. On to `Cc1[nH]nc(Nc2ccc(Br)cc2)c1[N+](=O)[O-]`, for which the half-maximal activity concentration (AC50) under setting [1] is 0.1 µM [rising, full curve, poor fit]. Same read-out and setting: with `CC(=O)Nc1sc2c(c1-c1nc3ccccc3s1)CCN(C(C)C)C2` the figure was 35.5 µM [rising, single point]. On to `CCC(=O)N(CCc1ccccc1C)Cc1cc2cc3c(cc2[nH]c1=O)OCO3`, for which the AC50 runs as follows: under setting [1], 29.1 µM [falling, single point]; under setting [2], 20.6 µM [rising, partial curve, poor fit]. As for `COc1ccccc1/C=C1/SC(=O)N(CCC(=O)Nc2ccc(S(=O)(=O)Nc3nccs3)cc2)C1=O`, the AC50 was 16.4 µM [falling, partial curve] under setting [1] and 32.6 µM [falling, partial curve, poor fit] under setting [2]. With `O=C(CCN1Cc2ccccc2C1)c1ccc2c(c1)OCCO2`, the concentration at half-maximal activity (AC50) runs as follows: under setting [1], 22.4 µM [falling, single point]; under setting [2], 35.5 µM [rising, partial curve, poor fit]. `CCOc1ccccc1NC(=O)CSc1nnc(-c2ccco2)n1Cc1ccco1`: the concentration at half-maximal activity (AC50) under setting [1] is 15.8 µM [falling, single point].

For the compound `CC1CN(c2nnc(NC(=O)c3ccccc3)s2)CC(C)O1` (configuration not stated), under setting [1], the AC50 was 10 µM [falling, partial curve, poor fit].

Consider `CCOC(=O)COc1cc(-n2c(=S)[nH]c3cc(OC)c(OC)cc3c2=O)c(Cl)cc1Cl`, for which the concentration at half-maximal activity (AC50) reads like this: under setting [1], 35.5 µM [falling, single point]; under setting [2], 35.5 µM [rising, partial curve, poor fit]. Take `Cc1ccc(N2CC(=O)Nc3c(sc4nc(C)cc(C)c34)C2=O)cc1`: the AC50 under setting [1] is 7.94 µM [rising, partial curve, poor fit]. Still for that read-out and setting: as for `O=C(N/N=C/c1ccc(N2CCCCC2)o1)c1ccccc1[N+](=O)[O-]`, the figure is 20.6 µM [falling, partial curve]. Regarding `COc1cccc(C2CC(c3ccccc3Cl)n3nnnc3N2)c1` (configuration not stated), the half-maximal activity concentration (AC50) under setting [1] is 16.4 µM [falling, partial curve]. On to `Clc1ccc(Cc2nc(-c3ccncc3)no2)cc1`, for which the AC50 under setting [1] was 35.5 µM [rising, single point]. For `CCOC(=O)c1c(/N=C/c2ccc(C)cc2O)sc2c1CCC2`, the AC50 under setting [1] was 29.1 µM [rising, single point].

With `O=C1C[C@H]2[C@H](CO)[C@@H](OC(=O)c3ccc(-c4ccccc4)cc3)C[C@H]2O1`, the AC50 under setting [1] is 3.98 µM [rising, full curve, poor fit].

For `O=C(NN1C(=O)NC2(CCCCC2)C1=O)c1ccc(Cl)s1`, under setting [1], the AC50 was 0.92 µM [rising, full curve, poor fit]. With `Cc1ccc(C(=O)NCCn2cc(SCC(=O)Nc3cc(C)on3)c3ccccc32)cc1`, the AC50 under setting [1] was 20.6 µM [falling, single point].

Consider `CC(=O)Oc1ccccc1/C=C/c1ccc2ccccc2[n+]1C`, for which the half-maximal activity concentration (AC50) under setting [1] was 22.4 µM [falling, single point]. On to `COc1ccc(CNc2ncnc3c2c(-c2ccccc2)cn3-c2ccc(C)c(Cl)c2)cc1`, for which the concentration at half-maximal activity (AC50) under setting [1] was 35.5 µM [rising, single point].

On to `Cc1cccc(C(=O)Oc2csc(=S)n2C(=O)c2cccc(C)c2)c1`, for which the half-maximal activity concentration (AC50) under setting [1] was 29.1 µM [falling, single point]. Still for that read-out and setting: as for `O=C(N/N=C/c1cccc(Oc2ccccc2)c1)c1ccccc1F`, the figure is 20 µM [falling, partial curve, poor fit]; as for `CCOC(=O)COc1ccc(C)cc1-c1ccno1`, 2.06 µM [falling, single point]; as for `CC(=O)c1ccc2c(c1)c1ccccc1n2CC(C)C`, 18.4 µM [falling, partial curve].

Turning to `Cc1ccc(C)c(OCCC(=O)OCC(=O)c2ccc3c(c2)NC(=O)CO3)c1`, the concentration at half-maximal activity (AC50) under setting [1] was 16.4 µM [rising, single point].

On to `C=CCC[C@@H](Cc1ccc(F)cc1)C(=O)OC[C@H](Cc1c[nH]c2ccccc12)NC(=O)[C@@H](CC=C)CC(=O)NCCO`, for which the concentration at half-maximal activity (AC50) under setting [1] is 16.4 µM [falling, single point]. `CC(C)OC(=O)c1cc2ccccc2[nH]1`: under setting [1], the AC50 is 2.06 µM [rising, full curve, poor fit]. Consider `CCn1cc(C(=O)N2CC=C(c3ccccc3)CC2)c(=O)c2ccc(C)nc21`, for which the half-maximal activity concentration (AC50) under setting [1] is 7.08 µM [falling, full curve, poor fit].
